Measurements taken from US6441132B1 (priority 1996, dated 2002).
Part of at least one peptide drawing is inferred or uncertain, most often the ends. Bridge positions count the residues as written; N and C are the ends. Square brackets hold non-standard residues; d marks the D form. Peptide text beside a SMILES is read from it. Hyp = O=C(O)[C@@H]1C[C@@H](O)CN1

Test system: mice (9 to 21 days old)
Details: mouse, in vivo

**Q.** For `NC(=O)[C@@H]1CSSC[C@H](N)C(=O)N2C[C@H](O)C[C@H]2C(=O)N[C@H](Cc2c[nH]c3ccccc23)C(=O)N[C@@H](CCC(=O)O)C(=O)N2CCC[C@H]2C(=O)N[C@@H](Cc2c[nH]c3ccccc23)C(=O)N1` [Des-(Gly^1)-contryphan R, COWEPWC-NH2 (SEQ ID NO:3)] (H-C[Hyp][dW]EPWC-NH2; disulfide 1-7), which “Potency relative to contryphan R on i.c. injection” value is on record?
**A.** Its value is “less potent”.
